The values that follow come from publication doi:10.1101/2024.08.29.610268.

This data set relates to Hsh49 + Cus1. Briefly: UV crosslinking MS. Conditions: 254 nm, 10 min, protein:RNA 4:1; letters put together from the description.

Construct, isoform or probe ends are uncertain for at least one entry.

Turning to “GGACGAAUCUCUUUGCCUUUUGGCUUAGAUCAAGUGUAGUAUCUGUUCUUCUAG [U2 47Nt-snRNA]”, the binding result is listed as “binds”.
